In US7348140B1, “Clinical indications for genotyping polymorphic variants of G-protein coupled receptors” (Acadia Pharmaceuticals, Inc., priority 2001, dated 2008):
Changes are numbered by the printed parent chain.

Key:
Type in all cases: cell-based
[1] = molecular target: T1, thromboxane receptor V80E (Glutamic Acid 80) (Homo sapiens, UniProt P21731, V80E); assay: R-SAT functional assay, thromboxane receptor V80E; details: shift in functional potency, Glutamic Acid 80 vs Valine 80; Table 26
T1 construct: expressed in transfected cells; host or cells: NIH-3T3
T1 sequence (P21731 1-343 V80E): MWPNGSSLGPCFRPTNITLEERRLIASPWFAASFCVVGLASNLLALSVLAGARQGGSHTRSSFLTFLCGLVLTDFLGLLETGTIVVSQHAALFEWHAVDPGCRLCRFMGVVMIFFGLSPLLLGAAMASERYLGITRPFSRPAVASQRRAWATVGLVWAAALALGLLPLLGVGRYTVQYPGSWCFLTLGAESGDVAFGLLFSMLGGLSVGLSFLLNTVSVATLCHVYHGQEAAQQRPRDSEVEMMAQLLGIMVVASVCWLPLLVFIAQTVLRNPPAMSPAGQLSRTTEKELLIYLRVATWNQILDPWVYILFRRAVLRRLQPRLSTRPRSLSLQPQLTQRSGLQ

[2] = molecular target: T2, thromboxane receptor E94V (Valine 94) (Homo sapiens, UniProt P21731, E94V); assay: R-SAT functional assay, thromboxane receptor E94V; details: shift in functional potency, Valine 94 vs Glutamine 94; Table 27
T2 construct: expressed in transfected cells; host or cells: NIH-3T3
T2 sequence (P21731 1-343 E94V): T1 sequence (P21731 1-343 V80E) with E80V, E94V

[3] = molecular target: T3, thromboxane receptor V176E (Glutamic Acid 176) (Homo sapiens, UniProt P21731, V176E); assay: R-SAT functional assay, thromboxane receptor V176E; details: shift in functional potency, Glutamic Acid 176 vs Valine 176
T3 construct: expressed in transfected cells; host or cells: NIH-3T3
T3 sequence (P21731 1-343 V176E): T1 sequence (P21731 1-343 V80E) with E80V, V176E

Fold [1]: 11 fold
Fold [2]: 2.3 fold
Fold [3]: 7 fold
SMILES: CCCCC[C@H](O)/C=C/[C@H]1O[C@H]2C[C@H](O2)[C@@H]1C/C=C\CCCC(=O)O [Thromboxane A2]
